The source of these data is PMC2373309.

By UniProt entry, the sequences of proteins in these tests, tags left out. Residues count along the entry.
UniProt P11362, residues 22-822: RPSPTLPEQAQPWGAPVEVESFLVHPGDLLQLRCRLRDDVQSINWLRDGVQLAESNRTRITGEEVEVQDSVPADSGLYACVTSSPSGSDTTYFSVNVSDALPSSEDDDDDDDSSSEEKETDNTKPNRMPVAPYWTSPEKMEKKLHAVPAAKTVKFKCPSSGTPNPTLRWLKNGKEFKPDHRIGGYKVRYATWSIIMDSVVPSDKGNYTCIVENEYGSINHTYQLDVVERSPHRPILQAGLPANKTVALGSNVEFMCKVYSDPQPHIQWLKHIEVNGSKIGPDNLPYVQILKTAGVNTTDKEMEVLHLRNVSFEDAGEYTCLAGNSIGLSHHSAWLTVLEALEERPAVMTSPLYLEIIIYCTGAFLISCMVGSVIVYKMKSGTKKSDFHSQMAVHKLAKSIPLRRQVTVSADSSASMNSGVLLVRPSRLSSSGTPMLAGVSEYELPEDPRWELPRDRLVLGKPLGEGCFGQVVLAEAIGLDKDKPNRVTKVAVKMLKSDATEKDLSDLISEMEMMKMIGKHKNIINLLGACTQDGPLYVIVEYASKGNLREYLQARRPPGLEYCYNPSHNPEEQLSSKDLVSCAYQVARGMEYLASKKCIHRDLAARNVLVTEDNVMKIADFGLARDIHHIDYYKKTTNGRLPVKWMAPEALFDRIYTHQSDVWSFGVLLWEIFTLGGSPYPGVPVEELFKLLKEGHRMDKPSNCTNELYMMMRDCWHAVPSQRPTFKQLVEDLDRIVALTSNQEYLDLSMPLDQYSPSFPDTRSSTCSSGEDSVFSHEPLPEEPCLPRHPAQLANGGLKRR

No constants are given. Whether binding was seen depends on the method and setting. In cells and extracts the contact can be indirect. Sequences can lack the tags named with a protein.

The experiment addresses FGFR1 (UniProt P11362). The experiment can be described thus: co-IP; lysates from Cos-1 cells transiently co-transfected; immunoprecipitation with anti-FGFR1 antibody, western blot with anti-CAP350 antibody; NP40 1% lysis buffer. In general terms: A western blot detects proteins with antibodies after separation by electrophoresis.

With “Myc-tagged CAP350 (AA 1-3117) (from UniProt Q5VT06 1-3117)”, the binding result is given as “no binding”.

B1: Myc-tagged CAP350 C-terminal domain (AA 1896-3117) (domain or fragment, UniProt Q5VT06 1896-3117)
chain: ALAAWDKELIKPKTPKKELEDQRTEQKEIASEEESPVPLYSHLNSESSIPEELGSPAVEYVPSESIGQEQPGSPDHSILTEEMICSQELESSTSPSKHSLPKSCTSVSKQESSKGSHRTGGQCHLPIKSHQHCYSWSDESLSMTQSETTSDQSDIEGRIRALKDELRKRKSVVNQLKKEQKKRQKERLKAQEASLIKQLESYDEFIKKTEAELSQDLETSPTAKPQIKTLSSASEKPKIKPLTPLHRSETAKNWKSLTESERSRGSLESIAEHVDASLSGSERSVSERSLSAYAKRVNEWDSRTEDFQTPSPVLRSSRKIREESGDSLENVPALHLLKELNATSRILDMSDGKVGESSKKSEIKEIEYTKLKKSKIEDAFSKEGKSDVLLKLVLEQGDSSEILSKKDLPLDSENVQKDLVGLAIENLHKSEEMLKERQSDQDMNHSPNIQSGKDIHEQKNTKEKDLSWSEHLFAPKEIPYSEDFEVSSFKKEISAELYKDDFEVSSLLSLRKDSQSCRDKPQPMRSSTSGATSFGSNEEISECLSEKSLSIHSNVHSDRLLELKSPTELMKSKERSDVEHEQQVTESPSLASVPTADELFDFHIGDRVLIGNVQPGILRFKGETSFAKGFWAGVELDKPEGNNNGTYDGIAYFECKEKHGIFAPPQKISHIPENFDDYVDINEDEDCYSDERYQCYNQEQNDTEGPKDREKDVSEYFYEKSLPSVNDIEASVNRSRSLKIETDNVQDISGVLEAHVHQQSSVDSQISSKENKDLISDATEKVSIAAEDDTLDNTFSEELEKQQQFTEEEDNLYAEASEKLCTPLLDLLTREKNQLEAQLKSSLNEEKKSKQQLEKISLLTDSLLKVFVKDTVNQLQQIKKTRDEKIQLSNQELLGDDQKKVTPQDLSQNVEEQSPSISGCFLSSELEDEKEEISSPDMCPRPESPVFGASGQEELAKRLAELELSREFLSALGDDQDWFDEDFGLSSSHKIQKNKAEETIVPLMAEPKRVTQQPCETLLAVPHTAEEVEILVHNAAEELWKWKELGHDLHSISIPTKLLGCASKGLDIESTSKRVYKQAVFDLTKEIFEEIFAEDPNLNQPVWMKPCRINSSYFRRVKNPNNLDEIKSFIASEVLKLFSLKKEPNHKTDWQKMMKFGRKKRDRVDHILVQELHEEEAQWVNYDEDELCVKMQLADGIFETLIKDTIDVLNQISEKQGRMLLV
In the case of B1, the binding entry is “no binding”.
